Results: paper PMC9772058
These are yes or no findings as the source states them, for the method shown. In cells and extracts the contact can be indirect. Some results given as binding are weak or reduced against the parent protein; the word gives no strength.

By UniProt entry, the sequences of proteins in these tests, tags left out.
UniProt Q9ULZ3: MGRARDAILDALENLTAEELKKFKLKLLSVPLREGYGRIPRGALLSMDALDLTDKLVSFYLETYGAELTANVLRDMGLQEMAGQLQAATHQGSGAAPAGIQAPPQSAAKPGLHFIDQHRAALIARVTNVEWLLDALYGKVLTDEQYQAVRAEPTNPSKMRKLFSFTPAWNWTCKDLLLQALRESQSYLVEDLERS
UniProt P29466: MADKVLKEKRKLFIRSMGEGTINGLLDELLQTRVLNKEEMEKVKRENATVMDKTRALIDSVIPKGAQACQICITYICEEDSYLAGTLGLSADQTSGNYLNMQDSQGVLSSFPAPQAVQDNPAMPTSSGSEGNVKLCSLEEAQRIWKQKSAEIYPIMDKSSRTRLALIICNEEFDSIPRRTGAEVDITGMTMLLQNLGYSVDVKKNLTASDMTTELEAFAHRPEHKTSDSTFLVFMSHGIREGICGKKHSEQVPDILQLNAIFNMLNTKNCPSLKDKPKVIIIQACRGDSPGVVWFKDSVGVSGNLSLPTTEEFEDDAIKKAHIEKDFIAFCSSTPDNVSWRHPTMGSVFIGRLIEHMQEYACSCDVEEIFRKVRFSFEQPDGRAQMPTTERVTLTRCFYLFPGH

T1: apoptosis-associated speck-like protein containing a CARD domain (ASC), mouse (mouse (endogenous in BMDMs)) (UniProt Q9EPB4)
T1 sequence: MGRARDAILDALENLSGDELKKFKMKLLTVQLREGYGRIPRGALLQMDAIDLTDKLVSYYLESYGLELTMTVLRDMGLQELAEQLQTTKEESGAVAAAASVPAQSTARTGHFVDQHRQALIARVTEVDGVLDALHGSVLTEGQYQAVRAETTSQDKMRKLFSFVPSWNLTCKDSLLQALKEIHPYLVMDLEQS


What was measured:
[1] = target: apoptosis-associated speck-like protein containing a CARD domain (ASC), human (human (endogenous in THP-1)) (UniProt Q9ULZ3); test: co-IP; lysates of LPS-primed BMDMs or PMA-differentiated THP-1 macrophages (MSU crystals 100 ug/ml 24 h, with or without LXA4 50-150 nM; also TXNRD2 siRNA in THP-1); antibody against ASC (1:100) overnight at 4°C, Protein G agarose beads 2 h at 4°C; Western blotting
[2] = target: T1, apoptosis-associated speck-like protein containing a CARD domain (ASC), mouse (mouse (endogenous in BMDMs)); test: as above

binding [1] | binding [2] | Molecule
binds |  | pro-caspase-1, human (from UniProt P29466 1-404)
 | binds | pro-caspase-1, mouse (protein, UniProt P29452 1-402) MADKILRAKRKQFINSVSIGTINGLLDELLEKRVLNQEEMDKIKLANITAMDKARDLCDHVSKKGPQASQIFITYICNEDCYLAGILELQSAPSAETFVATEDSKGGHPSSSETKEEQNKEDGTFPGLTGTLKFCPLEKAQKLWKENPSEIYPIMNTTTRTRLALIICNTEFQHLSPRVGAQVDLREMKLLLEDLGYTVKVKENLTALEMVKEVKEFAACPEHKTSDSTFLVFMSHGIQEGICGTTYSNEVSDILKVDTIFQMMNTLKCPSLKDKPKVIIIQACRGEKQGVVLLKDSVRDSEEDFLTDAIFEDDGIKKAHIEKDFIAFCSSTPDNVSWRHPVRGSLFIESLIKHMKEYAWSCDLEDIFRKVRFSFEQPEFRLQMPTADRVTLTKRFYLFPGH
